# Assay results: PubChem BioAssay AID1471 (National Center for Advancing Translational Sciences (NCATS), 2008)
# Several values for one entry are separate records, joined by “and”; a condition that tells them apart may be missing. Equal values may be shown once. Screen size: about 230,000 compounds; about 310 (0.13%) were called active. The inconclusive results got no clear call from the source; some entries with a clear call stand among them for comparison. The call rests on the fitted dose curve; in most records, active means well fitted activation curve with a large enough effect; inconclusive means small, poorly fitted or top-dose-only effect; inactive means no such curve, though single readings can be large or run the other way. Where the call is inconclusive, the potency comes from a doubtful curve fit.
# Assay: qHTS Multiplex Assay to Identify Dual Action Probes in a Cell Model of Huntington: Cytoprotection (ATP); further: nearly all actives have a fitted effect of over 45% in size;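 on cytoprotection (ATP increase): toxic huntingtin expression switched on by the ecdysone agonist tebufenozide; % of control where 0% means no effect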
# Details: PC12 HTT-Q103 induced, ATP luminescence, 40 h; cytoprotection (ATP increase): at 56.4 µM (top of the series) unless noted
# Method in brief: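 ATP quantification (ATPlite) reports survival of PC12 cells in which tebufenozide, 100 nM final, switches on Htt exon 1 with 103 glutamines linked to GFP; compounds are titrated.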
# Potency means the concentration at half of the fitted maximal effect.
SMILES,Potency,cytoprotection (ATP increase)
O=C(NC1CCCC1)O[C@@H]1C(=O)c2cc(Br)ccc2O[C@H]1c1ccc2c(c1)OCO2,"inconclusive: 1.12 µM [activator, full curve]",
O=C(COC(=O)C1CC2C=CC1C2)NCc1ccc(F)cc1 (centres undefined),"inconclusive: 2 µM [activator, partial curve]",
NNc1nc2c(Cl)ccc(Cl)c2s1,"inconclusive: 0.501 µM [activator, partial curve]",
CCOC(=O)c1cc(-c2cccc([N+](=O)[O-])c2)n[nH]1,"inconclusive: 0.0089 µM [activator, full curve, poor fit]",
CC(=O)Nc1ccc(S(=O)(=O)N2CCN(S(=O)(=O)N3CCCCC3)CC2)cc1,,inactive: -9.15%
CC(C)SC1=NC(C)(C)C=C(/C=C/c2c(Cl)cccc2Cl)N1,"inconclusive: 12.6 µM [activator, partial curve]",
O=C(NCc1ccc(N2CCCC2=O)cc1)c1cn(CCc2ccccc2)nn1,,inactive: -22.5% [at 10 µM]
Cc1ccnc(NC(=O)CN2C(=O)c3ccccc3C2=O)c1,"inconclusive: 0.501 µM [activator, full curve, poor fit]",
CC(C)SC1=NC(C)(C)C=C(/C=C/c2ccc(Cl)cc2Cl)N1,"inconclusive: 12.6 µM [activator, single point]",
O=S(=O)(c1cccc2cnccc12)N1CCCNCC1,"inconclusive: 31.6 µM [activator, partial curve]",
Cc1noc(C)c1C1(O)CCCCCCCCCCC1,"inconclusive: 6.31 µM [activator, single point]",
O=C(Nc1ccccc1)c1cc2ccc3ccccc3c2s1,,inactive: 10.9% [at 10 µM]
Cn1cc(-c2nc3cnc(Oc4ccccc4)nc3n(CCC#N)c2=O)c2ccccc21,"inconclusive: 35.5 µM [activator, single point]",
COCCN=c1scc(-c2cc(OC)ccc2OC)n1/N=C/c1c[nH]c2ccccc12,"inconclusive: 3.55 µM [activator, partial curve]",
CCN(CC)CC(=O)Nc1cccc2c1C(=O)c1ccccc1C2=O,"inconclusive: 4.47 µM [activator, single point]",
CN(C)CCCc1cc(C(=O)Nc2ccc(-c3ccncc3)cc2)ccc1O,"inconclusive: 1.26 µM [activator, single point]",
CC[C@@H](CO)Nc1nc(NCc2ccccc2)c2ncn(C(C)C)c2n1,"inconclusive: 0.794 µM [activator, full curve, poor fit]",
CCOC(=O)N1CCN(C(=O)c2ccc3c(=O)n(-c4cc(OC)ccc4OC)c(=S)[nH]c3c2)CC1,"inconclusive: 1.12 µM [activator, single point]",
N=c1nc(N2CCCCC2)cc(N)n1O,"inconclusive: 0.1 µM [activator, partial curve, poor fit]",
O=C(NC1CCCC1)C(c1ccncc1)N(C(=O)c1csnn1)C1CCCC1 (centres undefined),,inactive: 3.01% [at 10 µM]
CCCC[C@@H]1C[C@H]1C(NC(=O)c1ccccc1)c1ccccc1C(F)(F)F (some centres undefined),,inactive: -36.3%
Cc1cccc(-n2c(C)n[nH]c2=S)c1,active: 3.55 µM,

SMILES,Potency,cytoprotection (ATP increase)
O=C(CN1CCN(c2ccc(O)cc2)CC1)Nc1cc(S(=O)(=O)N2CCCC2)ccc1Cl,,inactive: -51.2%
C/C=C/c1ccc(OCCCN2C(=O)NC(C)(C)C2=O)c(OC)c1,,inactive: -19.3%
CN(C)c1ccc(-c2cc(N(C)Cc3ccco3)ncn2)cc1,,inactive: -226%
CCOC(=O)C1CCN(Cc2ccccc2C)CC1,"inconclusive: 0.708 µM [activator, single point]",
O=C(Cn1c2c(c(=O)n3ncnc13)CCC2)N/N=C/c1cccs1,"inconclusive: 5.62 µM [activator, single point]",
N#C/C(=C\C=C\c1ccccc1[N+](=O)[O-])C(=O)NC1CCCCC1,"inconclusive: 17.8 µM [activator, single point]",
Cc1ccccc1NC(=O)CSc1nc(Nc2ccccc2)nc(N2CCOCC2)n1,"inconclusive: 14.1 µM [activator, partial curve]",
Cc1ccccc1N1C(=O)CC2(CCCC2)CC1=O,"inconclusive: 35.5 µM [activator, single point]",
CC1CCC(C(=O)NNC(=O)c2cc(-c3ccco3)[nH]n2)CC1 (centres undefined),"inconclusive: 0.0063 µM [activator, full curve, poor fit]",
CCN1C(C)=C(C(=O)OC)C(c2ccccc2)N2C(=O)[C@](O)(C(=O)OC)C(c3ccccc3)C(C(=O)c3ccccc3)=C12 (some centres undefined),"inconclusive: 0.0014 µM [activator, full curve, poor fit]",
CCCCCCC[C@H](N)[C@H](O)C(=O)N(C)[C@@H](CCS(C)=O)C(=O)N[C@@H](Cc1ccc(O)cc1)C(=O)N[C@@H](Cc1ccc(O)cc1)C(=O)O (some centres undefined),,inactive: 25.4% [at 10 µM]
COc1cccc(NC(=O)N2CCCc3ccccc32)c1,,inactive: -7.81% [at 10 µM]
CC(/C=C/C=C(\C)C(=O)O[C@@H]1O[C@H](CO[C@@H]2O[C@H](CO)[C@@H](O)[C@H](O)[C@H]2O)[C@@H](O)[C@H](O)[C@H]1O)=C\C=C\C=C(C)\C=C\C=C(/C)C(=O)O[C@@H]1O[C@H](CO[C@@H]2O[C@H](CO)[C@@H](O)[C@H](O)[C@H]2O)[C@@H](O)[C@H](O)[C@H]1O,"inconclusive: 3.16 µM [activator, single point]",
NC(=O)c1ncn(C2OC(CO)C(O)C2O)c1N (centres undefined),"inconclusive: 0.708 µM [activator, partial curve, poor fit]",
O=[N+]([O-])c1cc(C2Nc3cccc4cccc(c34)N2)ccc1Cl,,inactive: -9.69% [at 10 µM]
C=C1C=C(Br)C2(OCCCO2)[C@H]2OC12 (some centres undefined),"inconclusive: 0.0014 µM [activator, full curve, poor fit]",
CCCc1nn(C)c2c(=O)[nH]c(-c3cc(S(=O)(=O)N4CCN(C)CC4)ccc3OCC)nc12,"inconclusive: 562 nM [activator, single point] and inconclusive: 1.26 µM [activator, partial curve]",
Cc1ccccc1C(=O)N1CCN(c2ccc([N+](=O)[O-])c(NCc3cccnc3)c2)CC1,,inactive: 17.4% [at 10 µM]
COc1ccc(C(OC(=O)c2ccco2)C(=O)NC(C)(C)C)cc1 (centres undefined),,inactive: -10.3% [at 10 µM]
COc1cc2nc(CN(C)Cc3ccc(C(C)(C)C)cc3)[nH]c(=O)c2cc1OC,,inactive: -165%
COc1cc(C2SC(C)C(=O)N2CCc2ccccc2)cc(OC)c1OC (centres undefined),"inconclusive: 0.891 µM [activator, single point]",
Cc1cccc(-n2c(O)c(C=Nc3cccc(O)c3)c3ccccc3c2=O)n1,,inactive: 8.09% [at 10 µM]

SMILES,Potency,cytoprotection (ATP increase)
CCn1c(SCc2ccc(Cl)c(Cl)c2)nnc1C(C)NC(=O)c1ccc(OC)cc1 (centres undefined),"inconclusive: 1.26 µM [activator, single point]",
O=C(Cn1cc2c(n1)CCCCC2)N1CCCCC1,,inactive: -5.04% [at 10 µM]
CC(=O)c1cccc(NC(=S)NC(=O)c2ccc(Cl)cc2)c1,,inactive: -14% [at 10 µM]
CCOC(=O)c1c(-c2cccs2)csc1NC(=O)c1ccco1,,inactive: -10.6% [at 10 µM]
CCn1c(=S)[nH]c2scc(-c3cccs3)c2c1=O,,inactive: -9.87% [at 10 µM]
CCCCNCc1cc(Cl)c(OCCC)c(OCC)c1,"inconclusive: 0.631 µM [activator, partial curve]",
Cc1ccccc1OCC(O)CN1CCN(CCN2C(=O)c3cccc4cccc(c34)C2=O)CC1 (centres undefined),,inactive: -3.22% [at 10 µM]
Cc1cccnc1NC(=O)C1COc2ccccc2O1 (centres undefined),,inactive: -8.39%
CCN(CC)C(=O)c1ccc(O)c(OC)c1,"inconclusive: 0.251 µM [activator, full curve, poor fit]",
COC(=O)N1CCC2(CCN(C(=O)NC(C)C)CC2)CC1,"inconclusive: 2.24 µM [activator, full curve, poor fit]",
Cn1c(/C=C(\C#N)C(N)=S)ccc1-c1ccc(Br)cc1,"inconclusive: 35.5 µM [activator, single point]",
CC1(C)CN(c2ccc(N3CC(C)(C)C3=O)cc2)C1=O,"inconclusive: 0.562 µM [activator, full curve, poor fit]",
C[C@@]1(C(NC(=O)c2ccccc2)c2ccc(-c3ccccc3)cc2)C[C@H]1C1CCCCC1 (some centres undefined),"inconclusive: 2.51 µM [activator, partial curve, poor fit]",
N#C/C(=C/c1ccc(N2CCCCCC2)o1)c1cccc(F)c1,"inconclusive: 3.16 µM [activator, single point]",
COc1ccc(NC(=O)CCC(=O)NCCO)cc1,"inconclusive: 2.82 µM [activator, partial curve]",
O=C(CSc1ccc2ccccc2n1)N1CCC(c2noc3ccc(F)cc23)CC1,"inconclusive: 0.562 µM [activator, full curve, poor fit]",
O=C(COC(=O)c1ccccc1)NCc1cccs1,"inconclusive: 2.51 µM [activator, single point]",
Nc1nc(Nc2ccccc2)sc1C(=O)c1ccccc1,"inconclusive: 5.62 µM [activator, single point]",
CC(C)CC(=O)N(Cc1ccc(F)cc1)C1CCS(=O)(=O)C1 (centres undefined),"inconclusive: 6.31 µM [activator, single point]",
CCOc1ccc(NC(=S)N(Cc2ccc(N(C)C)cc2)Cc2ccco2)cc1,,inactive: -82.1%

# 20 entries from above, bar-delimited.
SMILES | Potency | cytoprotection (ATP increase)
COc1ccc(C(OC(=O)c2ccco2)C(=O)NC(C)(C)C)cc1 (centres undefined) |  | inactive: -10.3% [at 10 µM]
COc1cc2nc(CN(C)Cc3ccc(C(C)(C)C)cc3)[nH]c(=O)c2cc1OC |  | inactive: -165%
COc1cc(C2SC(C)C(=O)N2CCc2ccccc2)cc(OC)c1OC (centres undefined) | inconclusive: 0.891 µM [activator, single point] | 
Cc1cccc(-n2c(O)c(C=Nc3cccc(O)c3)c3ccccc3c2=O)n1 |  | inactive: 8.09% [at 10 µM]
CCn1c(SCc2ccc(Cl)c(Cl)c2)nnc1C(C)NC(=O)c1ccc(OC)cc1 (centres undefined) | inconclusive: 1.26 µM [activator, single point] | 
O=C(Cn1cc2c(n1)CCCCC2)N1CCCCC1 |  | inactive: -5.04% [at 10 µM]
CC(=O)c1cccc(NC(=S)NC(=O)c2ccc(Cl)cc2)c1 |  | inactive: -14% [at 10 µM]
CCOC(=O)c1c(-c2cccs2)csc1NC(=O)c1ccco1 |  | inactive: -10.6% [at 10 µM]
CCn1c(=S)[nH]c2scc(-c3cccs3)c2c1=O |  | inactive: -9.87% [at 10 µM]
CCCCNCc1cc(Cl)c(OCCC)c(OCC)c1 | inconclusive: 0.631 µM [activator, partial curve] | 
Cc1ccccc1OCC(O)CN1CCN(CCN2C(=O)c3cccc4cccc(c34)C2=O)CC1 (centres undefined) |  | inactive: -3.22% [at 10 µM]
Cc1cccnc1NC(=O)C1COc2ccccc2O1 (centres undefined) |  | inactive: -8.39%
CCN(CC)C(=O)c1ccc(O)c(OC)c1 | inconclusive: 0.251 µM [activator, full curve, poor fit] | 
COC(=O)N1CCC2(CCN(C(=O)NC(C)C)CC2)CC1 | inconclusive: 2.24 µM [activator, full curve, poor fit] | 
Cn1c(/C=C(\C#N)C(N)=S)ccc1-c1ccc(Br)cc1 | inconclusive: 35.5 µM [activator, single point] | 
CC1(C)CN(c2ccc(N3CC(C)(C)C3=O)cc2)C1=O | inconclusive: 0.562 µM [activator, full curve, poor fit] | 
C[C@@]1(C(NC(=O)c2ccccc2)c2ccc(-c3ccccc3)cc2)C[C@H]1C1CCCCC1 (some centres undefined) | inconclusive: 2.51 µM [activator, partial curve, poor fit] | 
N#C/C(=C/c1ccc(N2CCCCCC2)o1)c1cccc(F)c1 | inconclusive: 3.16 µM [activator, single point] | 
COc1ccc(NC(=O)CCC(=O)NCCO)cc1 | inconclusive: 2.82 µM [activator, partial curve] | 
O=C(CSc1ccc2ccccc2n1)N1CCC(c2noc3ccc(F)cc23)CC1 | inconclusive: 0.562 µM [activator, full curve, poor fit] | 
